Laboratory results: article PMC10937713
These are yes or no findings as the source states them, for the method shown. In cells and extracts the contact can be indirect. A yes stands for co-enrichment or nearness to the bait. Other partners may have been found.

Amino acid sequences for entries named in this document (tags omitted). A change or cut given only in a name is not applied to a line headed by its entry.
UniProt O14744: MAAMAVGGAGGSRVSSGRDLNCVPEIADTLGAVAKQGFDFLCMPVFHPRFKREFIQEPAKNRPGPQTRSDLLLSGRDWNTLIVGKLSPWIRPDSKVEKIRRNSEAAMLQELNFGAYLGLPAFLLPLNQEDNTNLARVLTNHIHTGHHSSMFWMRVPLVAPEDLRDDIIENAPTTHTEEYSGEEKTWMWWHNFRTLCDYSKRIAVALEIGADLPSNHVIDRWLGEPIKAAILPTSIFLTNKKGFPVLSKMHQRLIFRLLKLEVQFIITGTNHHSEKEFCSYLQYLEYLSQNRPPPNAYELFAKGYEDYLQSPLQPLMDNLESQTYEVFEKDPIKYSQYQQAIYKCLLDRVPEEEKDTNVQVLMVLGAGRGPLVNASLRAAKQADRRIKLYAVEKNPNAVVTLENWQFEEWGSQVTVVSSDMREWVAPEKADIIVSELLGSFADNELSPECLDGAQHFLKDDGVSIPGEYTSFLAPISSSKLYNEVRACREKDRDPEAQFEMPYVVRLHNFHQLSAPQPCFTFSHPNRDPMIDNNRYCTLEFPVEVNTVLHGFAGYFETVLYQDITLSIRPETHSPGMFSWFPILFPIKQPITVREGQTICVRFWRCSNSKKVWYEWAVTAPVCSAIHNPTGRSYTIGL
UniProt Q96AE4: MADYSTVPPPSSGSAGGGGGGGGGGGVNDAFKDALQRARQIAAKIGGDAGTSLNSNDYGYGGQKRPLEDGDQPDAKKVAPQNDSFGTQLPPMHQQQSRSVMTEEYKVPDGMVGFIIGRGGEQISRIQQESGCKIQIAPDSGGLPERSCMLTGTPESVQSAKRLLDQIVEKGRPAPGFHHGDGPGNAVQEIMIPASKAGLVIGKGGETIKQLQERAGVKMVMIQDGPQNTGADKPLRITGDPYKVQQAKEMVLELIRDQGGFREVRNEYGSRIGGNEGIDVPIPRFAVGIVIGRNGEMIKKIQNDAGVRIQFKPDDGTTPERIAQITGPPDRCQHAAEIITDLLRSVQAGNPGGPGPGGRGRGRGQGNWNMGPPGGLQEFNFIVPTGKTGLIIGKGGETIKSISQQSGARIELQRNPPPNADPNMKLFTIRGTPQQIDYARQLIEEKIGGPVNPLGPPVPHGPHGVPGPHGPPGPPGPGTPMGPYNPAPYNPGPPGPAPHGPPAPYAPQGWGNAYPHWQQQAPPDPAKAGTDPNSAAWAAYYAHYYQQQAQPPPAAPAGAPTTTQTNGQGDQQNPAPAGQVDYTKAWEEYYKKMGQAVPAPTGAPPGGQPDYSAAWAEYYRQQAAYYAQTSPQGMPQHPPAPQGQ
UniProt Q13283: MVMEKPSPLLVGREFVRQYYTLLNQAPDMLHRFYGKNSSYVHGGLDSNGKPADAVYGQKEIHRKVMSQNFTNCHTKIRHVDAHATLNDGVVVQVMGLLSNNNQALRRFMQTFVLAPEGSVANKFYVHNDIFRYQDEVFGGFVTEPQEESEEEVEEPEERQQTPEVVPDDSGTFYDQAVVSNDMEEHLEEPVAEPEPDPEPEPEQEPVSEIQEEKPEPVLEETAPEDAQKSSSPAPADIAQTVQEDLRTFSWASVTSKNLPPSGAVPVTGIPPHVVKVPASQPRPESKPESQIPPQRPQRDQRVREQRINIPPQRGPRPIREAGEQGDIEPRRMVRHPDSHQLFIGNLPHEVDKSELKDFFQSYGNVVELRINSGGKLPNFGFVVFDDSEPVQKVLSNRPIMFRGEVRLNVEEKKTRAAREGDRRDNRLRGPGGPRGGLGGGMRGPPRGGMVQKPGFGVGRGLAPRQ
UniProt P35637: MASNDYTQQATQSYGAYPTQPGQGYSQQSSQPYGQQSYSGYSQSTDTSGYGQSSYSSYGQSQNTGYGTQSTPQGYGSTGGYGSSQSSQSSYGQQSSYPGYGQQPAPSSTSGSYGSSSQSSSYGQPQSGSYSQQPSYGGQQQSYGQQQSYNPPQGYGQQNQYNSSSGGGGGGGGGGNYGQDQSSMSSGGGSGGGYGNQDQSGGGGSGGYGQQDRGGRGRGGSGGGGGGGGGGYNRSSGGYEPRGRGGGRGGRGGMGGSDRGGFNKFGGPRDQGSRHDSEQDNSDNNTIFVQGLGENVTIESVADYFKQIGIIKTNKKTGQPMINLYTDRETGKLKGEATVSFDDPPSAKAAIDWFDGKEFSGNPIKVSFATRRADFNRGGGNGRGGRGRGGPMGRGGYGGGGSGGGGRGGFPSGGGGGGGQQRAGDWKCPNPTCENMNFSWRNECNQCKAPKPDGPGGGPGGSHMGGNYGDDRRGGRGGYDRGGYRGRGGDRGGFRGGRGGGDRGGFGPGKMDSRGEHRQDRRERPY
UniProt P51116: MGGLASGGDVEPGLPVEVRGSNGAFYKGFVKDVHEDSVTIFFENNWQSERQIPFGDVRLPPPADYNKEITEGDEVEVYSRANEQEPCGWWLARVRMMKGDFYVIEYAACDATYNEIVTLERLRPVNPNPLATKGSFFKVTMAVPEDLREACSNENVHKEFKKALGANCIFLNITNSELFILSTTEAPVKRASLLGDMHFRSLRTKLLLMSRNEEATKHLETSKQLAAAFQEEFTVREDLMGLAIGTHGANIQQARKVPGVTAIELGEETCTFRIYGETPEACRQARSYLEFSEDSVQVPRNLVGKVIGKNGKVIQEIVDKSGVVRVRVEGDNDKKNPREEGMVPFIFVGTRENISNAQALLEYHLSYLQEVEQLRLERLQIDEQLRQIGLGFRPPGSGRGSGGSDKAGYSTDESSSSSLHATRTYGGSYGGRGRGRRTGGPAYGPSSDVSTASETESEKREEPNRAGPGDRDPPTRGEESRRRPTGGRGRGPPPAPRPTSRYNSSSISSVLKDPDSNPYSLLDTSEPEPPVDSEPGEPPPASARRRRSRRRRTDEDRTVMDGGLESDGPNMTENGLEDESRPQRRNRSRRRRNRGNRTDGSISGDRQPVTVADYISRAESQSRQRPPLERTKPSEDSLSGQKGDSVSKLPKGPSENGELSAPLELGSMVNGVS

B1: COPR5 (protein, UniProt Q9NQ92 1-184)
chain: MDLQAAGAQAQGAAEPSRGPPLPSARGAPPSPEAGFATADHSSQERETEKAMDRLARGTQSIPNDSPARGEGTHSEEEGFAMDEEDSDGELNTWELSEGTNCPPKEQPGDLFNEDWDSELKADQGNPYDADDIQESISQELKPWVCCAPQGDMIYDPSWHHPPPLIPYYSKMVFETGQFDDAED
B2: FAM120A (protein, UniProt Q9NZB2 1-1118)
chain: MGVQGFQDYIEKHCPSAVVPVELQKLARGSLVGGGRQRPPQTPLRLLVDADNCLHRLYGGFYTDWVSGGQWNHMLGYLAALAKACFGGNIELFVFFNGALEKARLHEWVKRQGNERQTAQQIVSHVQNKGTPPPKVWFLPPVCMAHCIRLALIRFHVKVAQSIEDHHQEVIGFCRENGFHGLVAYDSDYALCNIPYYFSAHALKLSRNGKSLTTSQYLMHEVAKQLDLNPNRFPIFAALLGNHILPDEDLASFHWSLLGPEHPLASLKVRAHQLVLPPCDVVIKAVADYVRNIQDTSDLDAIAKDVFQHSQSRTDDKVIRFKRAIGYYSATSKPMSFHPPHYLAARPGPFGMPGMVPPHVPPQMLNIPQTSLQAKPVAPQVPSPGGAPGQGPYPYSLSEPAPLTLDTSGKNLTEQNSYSNIPHEGKHTPLYERSSPINPAQSGSPNHVDSAYFPGSSTSSSSDNDEGSGGATNHISGNKIGWEKTGSHSEPQARGDPGDQTKAEGSSTASSGSQLAEGKGSQMGTVQPIPCLLSMPTRNHMDITTPPLPPVAPEVLRVAEHRHKKGLMYPYIFHVLTKGEIKIAVSIEDEANKDLPPAALLYRPVRQYVYGVLFSLAESRKKTERLAFRKNRLPPEFSPVIIKEWAAYKGKSPQTPELVEALAFREWTCPNLKRLWLGKAVEDKNRRMRAFLACMRSDTPAMLNPANVPTHLMVLCCVLRYMVQWPGARILRRQELDAFLAQALSPKLYEPDQLQELKIENLDPRGIQLSALFMSGVDMALFANDACGQPIPWEHCCPWMYFDGKLFQSKLLKASREKTPLIDLCDGQADQAAKVEKMRQSVLEGLSFSRQSHTLPFPPPPALPFYPASAYPRHFGPVPPSQGRGRGFAGVCGFGGPYGETVATGPYRAFRVAAASGHCGAFSGSDSSRTSKSQGGVQPIPSQGGKLEIAGTVVGHWAGSRRGRGGRGPFPLQVVSVGGPARGRPRGVISTPVIRTFGRGGRYYGRGYKNQAAIQGRPPYAASAEEVAKELKSKSGESKSSAMSSDGSLAENGVMAEEKPAPQMNGSTGDARAPSHSESALNNDSKTCNTNPHLNALSTDSACRREAALEAAVLNKEE

Target: protein arginine methyltransferase 5 (PRMT5) (human (endogenous in MCF-7 and T47D)) (UniProt O14744)
Experiment: affinity purification with mass spectrometry; PRMT5 antibody and rabbit IgG pulldowns of MCF-7_RBKO cell lysates; NP-40 lysis buffer (20 mM Tris-HCl pH 7.6, 150 mM NaCl, 0.1% NP-40, 1 mM EDTA); antibody overnight at 4 °C, protein-G Dyna beads; SDS-PAGE, tryptic digestion, MS; significant: log2FC >= 0.5 and FDR < 0.05

binding, binds:
FUBP1 (from UniProt Q96AE4 1-644), G3BP1 (from UniProt Q13283 1-466), fused in sarcoma (FUS) (from UniProt P35637 1-526), FXR2 (from UniProt P51116 1-673), B1, B2
